Measurements taken from patent US20230100062A1, “ANTIMICROBIAL PEPTIDES” (priority 2019, published 2023).
At least one peptide structure holds a part that was inferred or is arguable (an end, a ring closure or a residue). Ends that are not written are not given here. * marks the point of attachment. For = O=C*

Columns and labels:
[1] = In-liquid AFM imaging of SLBs mimicking bacterial membranes; details: 0.25 μM
Excerpt: Lipid Vesicle Preparation. 1-palmitoyl-2-oleoyl-glycero-3-phosphocholine (POPC) with 1-palmitoyl-2-oleoyl-sn-glycero-3-phospho-(1′-rac-glycerol) (POPG) lipids used for vesicle construction were from Avanti Polar Lipids (Alabaster, USA). POPC was used as mammalian model membranes, and POPC/POPG (3:1, molar ratios) was used as bacterial model membranes. The lipids were weighted up, dissolved in chloroform-methanol (2:1, vol/vol), and dried under a nitrogen stream to form a thin film. The film was hydrated in 10 mM phosphate buffer (pH 7.4), vortexed for 2 min and bath sonicated for 30 min. The obtained suspension was extruded using a hand-held extruder (Avanti Polar lipids) (29 times, polycarbonate filter, 0.05 μm) to give a clear solution of small unilamellar vesicles, which were analysed (50 nm) by photon correlation spectroscopy (ZEN3600; Malvern Instruments, UK) following the re-suspension of vesicles to a final concentration of 1 mg/mL. Dynamic light scattering batch measurements were carried out in a low volume disposable cuvette at 25° C. Hydrodynamic radii were obtained through the fitting of autocorrelation data using the manufacturer's Dispersion Technology Software (version 5.10).
Preparation of SLBs for in-liquid AFM imaging. SLBs were formed using a vesicle fusion method as described elsewhere.^19 Freshly prepared vesicles (1.5 μL, 3 mg/mL) were added to cleaved mica that was pre-hydrated in 20 mM MOPS, 120 mM NaCl, 20 mM MgCl2 (pH 7.4).
After incubation over 45 min, the samples were washed 10 times with imaging buffer (20 mM MOPS, with 120 mM NaCl, pH 7.4) to remove unfused vesicles. The resulting SLBs were checked to confirm they were defect free. Mica discs (Agar Scientific, Stansted, UK) were glued to a metal puck, and freshly cleaved prior to lipid deposition.
In-liquid AFM imaging of SLBs. The topographic imaging of SLBs in aqueous buffers was performed on a Multimode 8 AFM system (Bruker AXS, USA) using Peak Force Tapping™ mode and MSNL-E cantilevers (Bruker AFM probes, USA). […]

[2] = In-liquid AFM imaging of SLBs mimicking mammalian membranes; details: even at higher concentrations (0.6 μM)
[3] = Thermal unfolding by CD spectroscopy; assay type: physicochemical; details: 20 μM protein, pH 7.4, 10 mM phosphate buffer
Method: Circular Dichroism Spectroscopy. Aqueous peptide solutions (300 μL, at a given concentration) were prepared in filtered (0.22 μm), 10 mM phosphate buffer, pH 7.4. CD spectra recorded in the presence of synthetic membranes are for L/P molar ratio of 100. All CD spectra were recorded on a JASCO J-810 spectropolarimeter fitted with a Peltier temperature controller. All measurements were taken in ellipticities in mdeg and converted to molar ellipticities by normalizing for the concentration of peptide bonds and cuvette path length ([θ], deg cm2 dmol−1 res−1). The data collected with a 1 nm step and 1 s collection time per step are presented as the average of 4 scans. Thermal denaturation curves were recorded with 2° C. intervals using 1 nm bandwidth, 180 s equilibration time for each spectrum and with 2° C./min ramp rate.

[4] = Isothermal titration calorimetry, mammalian mimetic membranes; assay type: binding; details: ITC
S. aureus (ATCC 6538) = assay type: cell-based; details: summary of MICs
Method: (§1) Minimum Inhibitory Concentrations assay. Minimum inhibitory concentrations (MICs) were determined by broth microdilution on P. aeruginosa, E. coli, S. aureus, M. luteus, B. subtilis, S. typhimurium and K. pneumoniae according to the Clinical and Laboratory Standards Institute. Typically, 100 μL of 0.5-1×10^6 CFU per ml of each bacterium in Mueller Hinton media broth (Oxoid) were incubated in 96-well microtiter plates with 100 μL of serial two-fold dilutions of the corresponding antimicrobial agent (from 100 to 0 μM) at 37° C. on a 3D orbital shaker. The absorbance was measured after the addition of NI01, its derivatives or an antibiotic at 600 nm using a SpectraMax i3× Multi-Mode Microplate Reader (Molecular Devices). MICs were defined as the lowest protein concentration that inhibited visible bacterial growth after 24 h at 37° C.

[5] = tested on: P. aeruginosa (ATCC 27853); assay type: cell-based; details: summary of MICs
Method: as §1

Row | Substance | mode of membrane disruption (AFM) [1] | changes in SLBs mimicking mammalian membranes (AFM) [2] | transition midpoint (TM) of thermal unfolding [3] [°C] | binding in zwitterionic phospholipid membranes [4] | antibacterial activity in words (S. aureus (ATCC 6538)) | antibacterial activity in words [5]
1 | For-MAAFMKLIQFLATKGQKYVSLAWKHKGTILKWINAGQSFEWIYKQIKKLWA [NI01, epidermicin NI01] | floral patterns | No changes could be detected | ~60 | No binding was detected | equally effective | ineffective
2 | KYVSLAWKHKGTILKWINAGQSFEWIYKQIKKLWA-NH2 [α2α3α4] | abundance of thinned membrane regions | – | – | – | – | –
3 | QKYVSLAWKHKGTILKWINA-NH2 [α2α3] | membrane thinning | – | – | – | reversed trend | reversed trend
